Results are given in words; binding and its absence hold for the method and conditions named. Some results given as binding are weak or reduced against the parent protein; the word gives no strength.
Target: Her2 rFc (Homo sapiens) (UniProt P04626)
Test: ELISA on HER2 fused with a rabbit Fc, control rabbit IgG beside it

Binder	binding
anti-HER2 humanized synthetic single domain antibody sdAb no 4 (VHH, Purified sdAb in BLI; Any tag is not described for this assay; also called sdAb 4) VHH: EVQLQASGGGFVQPGGSLRLSCAASGYTSRESGMGWFRQAPGKEREFVSAISRDQDGISYYADSVKGRFTISRDNSKNTVYLQMNSLRAEDTATYYCAMIPLTRNAKYWGQGTQVTVSS	binds
anti-HER2 humanized synthetic single domain antibody sdAb no 5 (VHH, Purified sdAb in BLI; also called sdAb 5; hsdAb 5) VHH: EVQLQASGGGFVQPGGSLRLSCAASGYTFSEETMGWFRQAPGKEREFVSAISWNHTFFEYYADSVKGRFTISRDNSKNTVYLQMNSLRAEDTATYYCAVTPLPPNKAYWGQGTQVTVSS	binds

Now from value to binder:

binding	Binder
binds	anti-HER2 humanized synthetic single domain antibody sdAb no 2 (VHH, Purified sdAb in BLI; also called sdAb 2; hsdAb 2) VHH: EVQLQASGGGFVQPGGSLRLSCAASGDSYNESSMGWFRQAPGKEREFVSAISARGNHPLYYADSVKGRFTISRDNSKNTVYLQMNSLRAEDTATYYCASMPMPKWKKYWGQGTQVTVSS
binds	anti-HER2 humanized synthetic single domain antibody sdAb no 1 (VHH, Purified sdAb in BLI; also called sdAb 1; hsdAb1) VHH: EVQLQASGGGFVQPGGSLRLSCAASGATSNISNMGWFRQAPGKEREFVSAISRAESRPLYYADSVKGRFTISRDNSKNTVYLQMNSLRAEDTATYYCAYMPLVRHKAYWGQGTQVTVSS
binds	sdAb 3 (VHH) VHH: EVQLQASGGGFVQPGGSLRLSCAASGRYYEQSIMGWFRQAPGKEREFVSAISEYGGWQHYYADSVKGRFTISRDNSKNTVYLQMNSLRAEDTATYYCAIRHQNQSMMYWGQGTQVTVSS
binds	anti-HER2 humanized synthetic single domain antibody sdAb no 6 (VHH, Purified sdAb in BLI; Any tag is not described for this assay; also called sdAb 6) VHH: EVQLQASGGGFVQPGGSLRLSCAASGRGYTGTTMGWFRQAPGKEREFVSAISWTSNQTSYYADSVKGRFTISRDNSKNTVYLQMNSLRAEDTATYYCAMMPLPRWKGYWGQGTQVTVSS
